No constants are given. Whether binding was seen depends on the method and setting. Binding seen in cells or lysates may run through a third protein. Some entries that bind do so weakly or less than the wild type.
Biological target: endogenous V5-tagged PPP2R1A (human (endogenous in THP-1)) (UniProt P30153)
Experiment: co-IP

The chains behind the UniProt entries cited, without tags or fusion partners.
UniProt P30153: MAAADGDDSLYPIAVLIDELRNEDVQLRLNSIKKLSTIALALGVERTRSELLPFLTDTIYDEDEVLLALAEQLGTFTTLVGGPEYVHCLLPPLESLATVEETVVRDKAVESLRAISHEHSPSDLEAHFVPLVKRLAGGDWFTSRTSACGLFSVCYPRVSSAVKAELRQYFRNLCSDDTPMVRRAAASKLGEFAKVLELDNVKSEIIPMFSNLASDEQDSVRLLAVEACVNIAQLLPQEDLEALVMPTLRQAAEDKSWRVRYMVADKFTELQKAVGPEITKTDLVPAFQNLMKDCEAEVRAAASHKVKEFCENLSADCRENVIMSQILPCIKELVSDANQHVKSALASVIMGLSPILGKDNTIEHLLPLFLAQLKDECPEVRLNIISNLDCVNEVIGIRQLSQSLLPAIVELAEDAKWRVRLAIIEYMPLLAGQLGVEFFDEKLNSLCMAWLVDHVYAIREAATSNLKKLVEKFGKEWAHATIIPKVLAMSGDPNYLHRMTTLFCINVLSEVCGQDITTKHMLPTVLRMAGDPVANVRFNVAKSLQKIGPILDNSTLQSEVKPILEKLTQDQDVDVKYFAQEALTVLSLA
UniProt Q9UL03: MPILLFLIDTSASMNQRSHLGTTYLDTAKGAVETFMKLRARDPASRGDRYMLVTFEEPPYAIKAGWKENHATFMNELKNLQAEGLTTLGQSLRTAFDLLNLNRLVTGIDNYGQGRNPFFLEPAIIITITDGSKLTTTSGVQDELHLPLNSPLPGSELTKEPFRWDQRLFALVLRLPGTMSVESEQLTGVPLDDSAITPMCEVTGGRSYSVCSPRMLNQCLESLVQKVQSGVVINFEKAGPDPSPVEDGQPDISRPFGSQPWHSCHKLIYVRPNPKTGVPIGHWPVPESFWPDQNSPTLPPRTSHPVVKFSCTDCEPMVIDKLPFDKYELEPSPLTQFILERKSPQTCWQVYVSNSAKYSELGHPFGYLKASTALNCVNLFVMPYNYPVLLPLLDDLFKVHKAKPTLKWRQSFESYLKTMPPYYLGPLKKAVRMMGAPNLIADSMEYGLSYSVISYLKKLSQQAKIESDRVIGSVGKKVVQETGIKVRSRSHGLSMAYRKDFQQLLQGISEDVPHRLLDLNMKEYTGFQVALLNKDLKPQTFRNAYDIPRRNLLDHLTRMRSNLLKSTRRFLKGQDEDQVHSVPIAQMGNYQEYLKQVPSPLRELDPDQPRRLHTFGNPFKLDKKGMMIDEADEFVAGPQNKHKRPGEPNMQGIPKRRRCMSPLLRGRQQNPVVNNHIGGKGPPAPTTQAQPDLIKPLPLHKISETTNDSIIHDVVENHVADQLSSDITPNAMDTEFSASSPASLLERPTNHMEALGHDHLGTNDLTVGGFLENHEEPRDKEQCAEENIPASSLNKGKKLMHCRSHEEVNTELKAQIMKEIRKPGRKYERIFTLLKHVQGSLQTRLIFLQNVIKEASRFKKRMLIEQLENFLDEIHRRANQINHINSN

Q: How did the binding turn out when “Integrator complex subunit INTS6 (from UniProt Q9UL03 1-887)” was run?
A: binds

Source: article doi:10.1101/2020.07.12.199372
